Measurements published in PubChem BioAssay AID590 (National Center for Advancing Translational Sciences (NCATS), 2007).
The whole screen tested about 59,000 compounds, of which about 6,500 (11%) were called active. Listed are the inconclusive results; actives and inactives stand elsewhere. Rule as the data show it: active = max dye-equivalent concentration above about 10 nM; inconclusive = mostly about 1.1 nM to 9.6 nM; inactive = weaker than that.

experiment: qHTS Assay for Spectroscopic Profiling in A350 Spectral Region; details: Compound autofluorescence, 340/450 nm, Alexa 350 dye-equivalents; active compounds read high
Source text: NIH Molecular Libraries Screening Centers Network [MLSCN]
NIH Chemical Genomics Center [NCGC]
Occasionally, the artifactual effect may originate from the compounds own spectral or other biophysical properties which generally tend to track its assay concentration. Pre-screening/profiling the library with respect to the compounds spectral properties should help one exclude false positives early on. While the most informative fluorescent profiling data set is obtained by performing a full excitation and emission scan of each well by using a monochromator-based plate reader, such an approach is practical only on a very limited scale as scanning each well requires long time. An alternative approach, applied here, is to perform plate reader scans using selected excitation and emission wavelength pairs to generate a multidimensional relational database that correlates compound concentration and the respective relative fluorescence intensity at a given wavelength set. A standard curve of Alexa 350 (A 350) present on each plate as six-point concentration series, was used to compute a normalized fluorescence response, termed dye-equivalent concentration, for each compound at each concentration.
NCGC Assay Protocol Summary:
100 mM Tris buffer, pH 8.0 […]

Row | SMILES | max dye-equivalent concentration
1 | NC1CCCCC1.NP(=O)(O)N(CCCl)CCCl | inconclusive: 6.5 nM
